Patent US20050238685A1, “Method of binding a compound to a surface” (priority 2002, published 2005)

Assay: Immobilization of BSA, fibronectin or RPMI-medium proteins on bare and hydrophobin-coated TEFLON, TFA extraction and SDS-PAGE

fibronectin
immobilization on coated TEFLON (SC3 or trSC3 coated TEFLON): can be immobilized
immobilization on bare TEFLON (bare TEFLON): not immobilized
